Results are given in words; binding and its absence hold for the method and conditions named. Some entries that bind do so weakly or less than the wild type.

The chains behind the UniProt entries cited, without tags or fusion partners.
UniProt Q13148: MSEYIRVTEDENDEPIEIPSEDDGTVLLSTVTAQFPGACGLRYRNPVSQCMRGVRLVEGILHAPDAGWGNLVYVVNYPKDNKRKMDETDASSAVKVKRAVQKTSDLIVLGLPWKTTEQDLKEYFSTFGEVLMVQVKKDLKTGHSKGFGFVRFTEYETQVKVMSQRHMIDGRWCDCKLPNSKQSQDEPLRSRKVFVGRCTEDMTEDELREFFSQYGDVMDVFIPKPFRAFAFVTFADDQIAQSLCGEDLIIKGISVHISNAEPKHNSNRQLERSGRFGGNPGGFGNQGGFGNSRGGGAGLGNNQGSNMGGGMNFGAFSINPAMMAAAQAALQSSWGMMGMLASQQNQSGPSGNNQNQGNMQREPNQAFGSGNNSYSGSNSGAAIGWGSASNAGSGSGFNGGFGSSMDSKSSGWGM

Consider 1 molecule from publication PMC12667529.

This assay has as its target TAR DNA-binding protein 43 (human (endogenous in post-mortem brain)) (UniProt Q13148). The experiment in a line: single-molecule pulldown (SiMPull); CAP1-SiMPull with colabelling: aggregates of human brain extracts captured on biotinylated CAP1, detected with a fluorescent TDP-43 antibody and a second fluorescent antibody against the protein of interest; spots within a 4-pixel radius counted as colabelled; MND TDP cohort compared with controls.

B1: calnexin (protein, UniProt P27824 21-592)
chain: HDGHDDDVIDIEDDLDDVIEEVEDSKPDTTAPPSSPKVTYKAPVPTGEVYFADSFDRGTLSGWILSKAKKDDTDDEIAKYDGKWEVEEMKESKLPGDKGLVLMSRAKHHAISAKLNKPFLFDTKPLIVQYEVNFQNGIECGGAYVKLLSKTPELNLDQFHDKTPYTIMFGPDKCGEDYKLHFIFRHKNPKTGIYEEKHAKRPDADLKTYFTDKKTHLYTLILNPDNSFEILVDQSVVNSGNLLNDMTPPVNPSREIEDPEDRKPEDWDERPKIPDPEAVKPDDWDEDAPAKIPDEEATKPEGWLDDEPEYVPDPDAEKPEDWDEDMDGEWEAPQIANPRCESAPGCGVWQRPVIDNPNYKGKWKPPMIDNPSYQGIWKPRKIPNPDFFEDLEPFRMTPFSAIGLELWSMTSDIFFDNFIICADRRIVDDWANDGWGLKKAADGAAEPGVVGQMIEAAEERPWLWVVYILTVALPVFLVILFCCSGKKQTSGMEYKKTDAPQPDVKEEEEEKEEEKDKGDEEEEGEEKLEEKQKSDAEEDGGTVSQEEEDRKPKAEEDEILNRSPRNRKPRRE
For the molecule B1, the binding result is recorded as “binds”.
